The test addresses T1, collagen receptor DDR2 (mouse (endogenous in MB49)) (UniProt Q62371).
T1 sequence: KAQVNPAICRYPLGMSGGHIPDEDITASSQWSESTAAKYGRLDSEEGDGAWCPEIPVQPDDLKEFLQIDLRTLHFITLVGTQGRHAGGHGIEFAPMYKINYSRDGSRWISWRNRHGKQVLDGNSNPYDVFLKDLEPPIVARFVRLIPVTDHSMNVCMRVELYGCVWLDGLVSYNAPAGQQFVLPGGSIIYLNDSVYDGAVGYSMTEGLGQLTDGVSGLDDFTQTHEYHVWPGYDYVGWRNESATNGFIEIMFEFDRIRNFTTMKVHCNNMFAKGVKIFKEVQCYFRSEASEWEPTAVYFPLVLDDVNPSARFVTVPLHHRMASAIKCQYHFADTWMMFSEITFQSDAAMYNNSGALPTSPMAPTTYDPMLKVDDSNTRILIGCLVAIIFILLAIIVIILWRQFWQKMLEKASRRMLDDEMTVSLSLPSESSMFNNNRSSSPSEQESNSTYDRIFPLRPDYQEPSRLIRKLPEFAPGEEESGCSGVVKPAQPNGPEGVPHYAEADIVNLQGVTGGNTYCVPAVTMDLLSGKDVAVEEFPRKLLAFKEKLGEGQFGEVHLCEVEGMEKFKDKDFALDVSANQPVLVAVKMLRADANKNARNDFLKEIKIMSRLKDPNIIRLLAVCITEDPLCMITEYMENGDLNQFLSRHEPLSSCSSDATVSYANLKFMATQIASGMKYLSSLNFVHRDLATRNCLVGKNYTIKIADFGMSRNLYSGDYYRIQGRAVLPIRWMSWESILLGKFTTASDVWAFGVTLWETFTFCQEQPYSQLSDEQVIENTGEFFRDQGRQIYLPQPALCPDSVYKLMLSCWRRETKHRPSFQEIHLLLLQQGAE
The test is described as follows: affinity purification with mass spectrometry.

Results are given in words; binding and its absence hold for the method and conditions named. Binding seen in cells or lysates may run through a third protein. These calls come from enrichment with a bait or labelling near it, and not all partners need be listed.

B1: G6pc1 (enzyme, UniProt P35576 1-357)
chain: MEEGMNILHDFGIQSTRYLQVNYQDSQDWFILVSVIADLRNAFYVLFPIWFHLKETVGINLLWVAVVGDWFNLVFKWILFGQRPYWWVLDTDYYSNSSVPIIKQFPVTCETGPGSPSGHAMGAAGVYYVMVTSTLAIFRGKKKPTYGFRCLNVILWLGFWAVQLNVCLSRIYLAAHFPHQVVAGVLSGIAVAETFSHIRGIYNASLRKYCLITIFLFGFALGFYLLLKGLGVDLLWTLEKAKRWCERPEWVHLDTTPFASLFKNLGTLLGLGLALNSSMYRKSCKGELSKLLPFRFACIVASLVLLHLFDSLKPPSQVELIFYILSFCKSATVPFASVSLIPYCLARILGQTHKKSL
For B1, the binding entry is given as “binds”.

B2: Mdh2 (enzyme, UniProt P08249 25-338)
chain: AKVAVLGASGGIGQPLSLLLKNSPLVSRLTLYDIAHTPGVAADLSHIETRANVKGYLGPEQLPDCLKGCDVVVIPAGVPRKPGMTRDDLFNTNATIVATLTAACAQHCPEAMVCIIANPVNSTIPITAEVFKKHGVYNPNKIFGVTTLDIVRANTFVAELKGLDPARVNVPVIGGHAGKTIIPLISQCTPKVDFPQDQLATLTGRIQEAGTEVVKAKAGAGSATLSMAYAGARFVFSLVDAMNGKEGVVECSFVQSKETECTYFSTPLLLGKKGLEKNLGIGKITPFEEKMIAEAIPELKASIKKGEDFVKNMK
Turning to B2, the binding result was “binds”.

B3: Pgam1 (enzyme, UniProt Q9DBJ1 1-254)
chain: MAAYKLVLIRHGESAWNLENRFSGWYDADLSPAGHEEAKRGGQALRDAGYEFDICFTSVQKRAIRTLWTVLDAIDQMWLPVVRTWRLNERHYGGLTGLNKAETAAKHGEAQVKIWRRSYDVPPPPMEPDHPFYSNISKDRRYADLTEDQLPSCESLKDTIARALPFWNEEIVPQIKEGKRVLIAAHGNSLRGIVKHLEGLSEEAIMELNLPTGIPIVYELDKNLKPIKPMQFLGDEETVRKAMEAVAAQGKVKK
As to B3, the binding entry was “binds”.
